# Assay results reported in patent US9371331B2, “Modulators of methyl modifying enzymes, compositions and uses thereof” (Constellation Pharmaceuticals, Inc., priority 2012, dated 2016).
# At least one structure is not confirmed: it was looked up by name or label, or the drawing left a doubt.
# Test system: H3K27me3 mark in HeLa cells
# Test: H3K27me3 Alpha Hela Assay (AlphaLISA)
# Format: cell-based
# Details: 72 hrs
# Experimental: H3K27me3 Alpha Hela Assay (AlphaLISA).
# Ten different doses of each test compound (in a series of 3-fold dilutions) were plated in duplicate 384-well tissue culture treated plates (Catalog #781080; Greiner Bio One; Monroe, N.C.). Hela cells grown in culture were trypsinized and counted using a Countess® cell counter (Catalog #C10281; Life Technologies, Grand Island, N.Y.). Cell were diluted to 67,000 cells per mL in 10% DMEM (Catalog #10569-010 Life Technologies. Grand Island, N.Y.) and 15 μL (1,000 cells) were plated into each well using the Biotek MicroFlo™ Select Dispenser (BioTek Instruments. Inc. Vermont, USA),) of the 384-well plate. Plates were incubated at 37° C./5% CO2 for 72 hrs. One of the duplicate plates was processed for HeLa assay and the other for viability.
# To the plate processed for AlphaLISA was added 5 μL per well Cell-Histone Lysis buffer (1×) (Catalog #AL009F1 Perkin Elmer; Waltham, Mass.) and the plate was incubated at RT for 30 minutes on a plate shaker with low speed (Model#4625-Q Thermo Scientific; Waltham, Mass.). […] The plates were then read using an EnVision-Alpha Reader (model #2104 Perkin Elmer: Waltham, Mass.).
# Data from both assays was analyzed using Assay Assistant (Constellation Pharmaceuticals In-house product) and Activity Base (IDBS Ltd. Surrey, UK) template. […] Readout of DMSO wells were used to normalize the data. […]
smiles,measurement,value
"COc1cc(C)[nH]c(=O)c1CNC(=O)c1c(C)n(C(C)C2CCN(CC(=O)O)CC2)c2ccccc12 (single isomer, unassigned) [Compound 364, (R or S)-2-(4-(1-(3-((4-methoxy-6-methyl-2-oxo-1,2-dihydropyridin-3-yl)methylcarbamoyl)-2-methyl-1H-indol-1-yl)ethyl)piperidin-1-yl) acetic acid]",H3K27me3_Alpha_HeLa_ (EC50),*(3.33 uM)
